Measurements reported in PubChem BioAssay AID504764 (Drosophila RNAi Screening Center, 2011).
In all, the deposit lists about 22,000 reagents; this is a random part of those with a known target gene and a result. Of all reagents, 403 (1.9%) got an active call. 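Unnormalised raw counts per well; ratio z-scores behind the hit calls and whether each hit raises or lowers signal are not deposited.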 Not stated in the record: the amount of reagent.

Purpose: 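Genome-wide screen for regulators of Notch-driven gene expression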 (primary screen)
Cells: Drosophila Kc167 cells
Reagents: long dsRNA against Drosophila genes
Duration: about 5 days (4 days dsRNA, then 24 h after transfection)
Conditions: transfection of constitutively active membrane-tethered Notch lacking the extracellular domain, read 24 h later
Measured: 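Firefly luciferase from an E(spl)m3 reporter with active Notch, plus control-promoter and uninduced reporter wells for normalisation; unnormalised counts, duplicate wells a and b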
Reading the numbers: induced reporter light, run 1, well a and induced reporter light, run 1, well b: higher = more light from the Notch target reporter with active Notch; control promoter light, run 1, well a and control promoter light, run 1, well b: higher = more light from the viral control promoter (cell number, transfection, viability); uninduced reporter light, run 1, well a: higher = more light from the Notch target reporter without active Notch
Hit rule: 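Wells with low control signal or poorly matching duplicates excluded; duplicates averaged; per source plate, z beyond ±2 for induced/control log2 ratio or beyond ±1.8 for induced/uninduced marks a hit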
Calls: active = modifier hit (raised or lowered Notch signal); inactive = not a hit

| gene knocked down | dsRNA | induced reporter light, run 1, well a | induced reporter light, run 1, well b | control promoter light, run 1, well a | control promoter light, run 1, well b | uninduced reporter light, run 1, well a | outcome |
| --- | --- | --- | --- | --- | --- | --- | --- |
| CG6901 | DRSC16129 | 2.40e5 | 2.19e5 | 2.35e5 | 2.49e5 | 18915 | inactive |
| Ddc | DRSC03314 | 81080 | 56140 | 50480 | 60695 | 3435 | inactive |
| daed | DRSC00299 | 1.32e5 | 1.50e5 | 1.57e5 | 1.82e5 | 18020 | active |
| Prosap | DRSC06382 | 71535 | 74060 | 81575 | 97160 | 6465 | inactive |
| Prosap | DRSC07081 | 1.19e5 | 1.25e5 | 1.25e5 | 1.18e5 | 9810 | inactive |
| Blos3 | DRSC09573 | 1.70e5 | 2.19e5 | 2.76e5 | 2.94e5 | 14310 | inactive |
| Rab6 | DRSC03404 | 2.48e5 | 2.43e5 | 1.90e5 | 2.53e5 | 18310 | inactive |
| CG10527 | DRSC04078 | 78355 | 64405 | 47335 | 56115 | 4465 | inactive |
| CG2816 | DRSC00539 | 1.45e5 | 1.37e5 | 1.49e5 | 1.42e5 | 9850 | inactive |
| CG5177 | DRSC02824 | 1.68e5 | 1.64e5 | 1.80e5 | 1.93e5 | 14560 | inactive |
| Cyp9b2 | DRSC07390 | 1.59e5 | 1.50e5 | 2.01e5 | 1.76e5 | 14135 | inactive |
| nolo | DRSC03705 | 2.05e5 | 1.99e5 | 1.50e5 | 1.63e5 | 15750 | inactive |
| nolo | DRSC03719 | 45440 | 44605 | 45660 | 32075 | 2570 | inactive |
| nolo | DRSC03720 | 42075 | 33120 | 53800 | 34960 | 3695 | inactive |
| CG5174 | DRSC06920 | 1.01e5 | 78445 | 1.43e5 | 1.82e5 | 7440 | inactive |
| Got1 | DRSC07177 | 1.18e5 | 1.28e5 | 2.36e5 | 2.76e5 | 8270 | inactive |
| Efr | DRSC18322 | 1.23e5 | 1.33e5 | 2.25e5 | 2.40e5 | 9805 | inactive |
| Ypel | DRSC17996 | 2.13e5 | 1.68e5 | 2.57e5 | 3.09e5 | 11800 | inactive |
| ppk6 | DRSC06062 | 45530 | 40670 | 42065 | 48830 | 3805 | inactive |
| CG5885 | DRSC02910 | 2.93e5 | 3.13e5 | 1.89e5 | 1.78e5 | 17875 | active |
| Bdp1 | DRSC03192 | 2.04e5 | 2.46e5 | 1.79e5 | 1.72e5 | 18550 | inactive |

Ordered by “control promoter light, run 1, well a” (ascending): 3 of the entries above.
| gene knocked down | dsRNA | induced reporter light, run 1, well a | induced reporter light, run 1, well b | control promoter light, run 1, well a | control promoter light, run 1, well b | uninduced reporter light, run 1, well a | outcome |
| --- | --- | --- | --- | --- | --- | --- | --- |
| nolo | DRSC03719 | 45440 | 44605 | 45660 | 32075 | 2570 | inactive |
| nolo | DRSC03720 | 42075 | 33120 | 53800 | 34960 | 3695 | inactive |
| CG5174 | DRSC06920 | 1.01e5 | 78445 | 1.43e5 | 1.82e5 | 7440 | inactive |

Continued.
| gene knocked down | dsRNA | induced reporter light, run 1, well a | induced reporter light, run 1, well b | control promoter light, run 1, well a | control promoter light, run 1, well b | uninduced reporter light, run 1, well a | outcome |
| --- | --- | --- | --- | --- | --- | --- | --- |
| CG45002 | DRSC20144 | 56860 | 66890 | 71115 | 53305 | 9895 | inactive |
| PolH | DRSC11800 | 1.19e5 | 1.20e5 | 64310 | 99215 | 10290 | inactive |
| CG32085 | DRSC10138 | 1.36e5 | 1.28e5 | 1.75e5 | 1.31e5 | 6620 | inactive |
| CG32085 | DRSC10139 | 1.13e5 | 1.32e5 | 1.35e5 | 1.26e5 | 3750 | inactive |
| CG32085 | DRSC10576 | 1.67e5 | 1.80e5 | 2.89e5 | 2.21e5 | 6430 | inactive |
| CG15369 | DRSC18041 | 1.14e5 | 1.20e5 | 1.52e5 | 1.54e5 | 7528 | inactive |
| Cyp6a14 (retired record) | DRSC07376 | 1.69e5 | 1.49e5 | 2.03e5 | 2.21e5 | 15805 | inactive |
| Orc4 | DRSC04634 | 1.70e5 | 1.55e5 | 1.94e5 | 1.88e5 | 13160 | inactive |
| Arfip | DRSC15179 | 89270 | 91965 | 71380 | 78280 | 7620 | inactive |
| Prosbeta6 | DRSC11256 | 10365 | 7185 | 6990 | 7645 | 1020 | inactive |
| cDIP | DRSC14267 | 1.93e5 | 2.38e5 | 2.83e5 | 2.58e5 | 16005 | inactive |
| CG15914 | DRSC19739 | 71425 | 58820 | 75610 | 59430 | 8930 | inactive |
| CG32333 | DRSC08627 | 92205 | 1.16e5 | 2.00e5 | 1.54e5 | 7670 | inactive |
| CG32333 | DRSC08629 | 88615 | 90515 | 81190 | 72385 | 4020 | inactive |
| CG14853 | DRSC14977 | 1.78e5 | 1.64e5 | 1.65e5 | 1.61e5 | 11585 | inactive |
| pps | DRSC16057 | 64285 | 81635 | 1.02e5 | 61745 | 4270 | inactive |
| CG11368 | DRSC17778 | 1.04e5 | 1.22e5 | 1.96e5 | 2.46e5 | 8810 | inactive |
| CG14811 | DRSC17962 | 1.15e5 | 1.08e5 | 2.03e5 | 1.59e5 | 7115 | inactive |
| CG31088 | DRSC13123 | 1.41e5 | 1.42e5 | 1.19e5 | 1.67e5 | 10945 | inactive |
| alphaTub85E | DRSC16899 | 48175 | 56615 | 55310 | 48355 | 4425 | inactive |
| CG17917 | DRSC12570 | 96875 | 1.07e5 | 1.04e5 | 93855 | 7205 | inactive |
| Ripalpha | DRSC02657 | 95015 | 1.25e5 | 66960 | 82330 | 16280 | inactive |
| CG5500 | DRSC15820 | 1.65e5 | 1.14e5 | 1.59e5 | 1.54e5 | 12005 | inactive |
| ERp44 | DRSC20215 | 1.96e5 | 1.61e5 | 2.13e5 | 2.90e5 | 10955 | inactive |
| CG13901 | DRSC08371 | 1.04e5 | 1.62e5 | 2.15e5 | 1.77e5 | 5882 | inactive |
| CG15706 | DRSC06577 | 69935 | 67785 | 98215 | 76465 | 7590 | inactive |
| Acbp1 | DRSC03093 | 1.61e5 | 1.90e5 | 1.10e5 | 1.40e5 | 24665 | inactive |
| CG6791 | DRSC16118 | 1.53e5 | 1.65e5 | 1.63e5 | 1.28e5 | 12285 | inactive |
| Grl62c | DRSC07964 | 2.22e5 | 1.98e5 | 2.15e5 | 2.11e5 | 16710 | inactive |
